Values quoted from earlier work, collected in US20090191287A1, “Mitigation of Inflammation-Related Injuries” (priority 2008, published 2009).
At least one compound was matched to its structure with a doubt left.

Test system: endothelial cells (VCAM-1, IL-1, TNF2, IL-4)
Conditions: within 24 to 96 hours

CC/C=C\C/C=C\C/C=C\C/C=C\C/C=C\C/C=C\CCC(=O)O [DHA, docosahexaenoic acid]
expression of inflammation (VCAM-1, IL-1, TNF2, IL-4): reduced expression of inflammation
